This test can be described thus: IkB Signaling. The following applies: ABC-DLBCL IkBa-CBG/CBR dual luciferase ratio (green luciferase fused to IkBa over red control in OCI-Ly3 lymphoma cells), 4 h. In short, it runs like this:
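Luminescence ratio of IκBα-fused green versus native red beetle luciferase in OCI-Ly3 cells, 4 h post-doxycycline with compound; red signal alone, scaled from basal (0%) to zero light (-100%), flagged nonspecific or cytotoxic effects.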

The mark [1] stands for this setting: measured here: control luc red channel unless noted.

This passage reports AC50 results from PubChem BioAssay AID445 (National Center for Advancing Translational Sciences (NCATS), 2006).

For orientation: AC50 means the concentration giving half of the maximal activity seen.

This is one part of the list. Shown are side measurements of this screen, not its main read-out; they come without a call. The list favours compounds with an active or inconclusive main result. The note in brackets gives the kind of curve behind each potency; many fits are weak.

Regarding `Cc1ccc(CNC(=O)Cc2c(C)c3cc4c(C)coc4cc3oc2=O)cc1`, the AC50 under setting [1] was 3.16 µM [falling, full curve, poor fit].
On the same count and under the same terms, the figure for `CCCOc1ccccc1C1CC(=O)Nc2cc3c(cc21)OCO3` (stereo unspecified) is 10 µM [falling, partial curve].
Regarding `CCn1c(SCC(=O)Nc2ccc(OCc3ccccc3)cc2)nnc1-c1ccco1`, the AC50 under setting [1] was 12.6 µM [falling, partial curve].
With `CCOC(=O)c1ccc(N2CCN(c3cccc(OC)c3)CC2)c(NC(=O)Nc2ccc(OCC)cc2)c1`, the AC50 under setting [1] is 25.1 µM [rising, partial curve].
For `Cc1cc(Nc2ccc(C)c(Cl)c2)n2nc(Cc3ccccc3)nc2n1`, the AC50 under setting [1] was 12.6 µM [falling, partial curve].
With `Cc1cc(C)n2cc(CSc3nnnn3-c3ccccc3)nc2n1`, the AC50 under setting [1] is 6.31 µM [falling, partial curve].
Consider `COCCn1c(=O)[nH]c2cc(C(=O)NCc3ccccc3Cl)ccc2c1=O`, for which, under setting [1], the AC50 was 6.31 µM [falling, full curve].
On to `COc1ccccc1-c1cc(C(F)(F)F)nc(S(=O)(=O)CCCC(=O)N2CCOCC2)n1`, for which, under setting [1], the AC50 is 1.26 µM [falling, full curve].
In the case of `O=C(Cn1c(=O)ccc2cc(S(=O)(=O)N3CCCC3)ccc21)NCc1ccc(Cl)cc1`, the AC50 under setting [1] was 0.1 µM [falling, full curve, poor fit].
Turning to `O=C(c1ccc(Cl)cc1)N1CCC(c2ccncc2)CC1`, the AC50 under setting [1] is 3.98 µM [rising, partial curve].
The same measure, in the same setting: the figure for `Cn1nnnc1Sc1nc(-c2cccnc2)nc2ccccc12` is 5.01 µM [falling, full curve]; for `CCN(CC)S(=O)(=O)c1ccc2nc(NC(=O)c3cccnc3)sc2c1` it is 39.8 µM [falling, single point].
Take `Cc1ccc(NC(=O)CSc2nnc(COc3ccc(C#N)cc3)n2-c2ccccc2)cc1C`: the concentration at half-maximal activity (AC50) under setting [1] is 10 µM [falling, partial curve].
For `CCC(CO)NC(=O)C(=O)Nc1c2c(nn1-c1ccc(F)cc1)CSC2` (stereo unspecified), the AC50 runs as follows: (measured here: IkB-luc green channel) 3.98 µM [rising, single point]; (measured here: control luc red channel) 7.94 µM [rising, partial curve].
As to `CC(=O)Nc1cccc(NC(=O)CN2C(=O)CCSc3ccccc32)c1`, the AC50 under setting [1] is 15.8 µM [falling, single point].
In the case of `Cc1cccc2sc(NC(=O)CN(C)S(=O)(=O)c3cccs3)nc12`, under setting [1], the concentration at half-maximal activity (AC50) is 12.6 µM [falling, partial curve].
With `COc1ccc(OC)c(C(c2nnnn2C2CCCC2)N2CCc3ccccc3C2)c1` (stereo unspecified), the AC50 under setting [1] is 31.6 µM [falling, single point].
The same measure, in the same setting: the figure for `Cc1nc2nc(NC(=O)c3ccccc3F)[nH]n2c(=O)c1Cl` is 12.6 µM [falling, partial curve]; for `COc1ccc(C2C=C(c3cccc(OC)c3)Nc3c(C(=O)Nc4ccccc4)cnn32)cc1` (stereo unspecified) it is 15.8 µM [falling, partial curve].
Regarding `CCn1c2c(c(=O)n3ncc(C(=O)Nc4cc(Cl)ccc4C)c13)CN(Cc1ccc(OC)cc1)CC2`, under setting [1], the AC50 was 20 µM [falling, partial curve].
For the compound `O=C(NC1CCCCC1)c1ccc(S(=O)(=O)N2CCOCC2)cc1`, under setting [1], the AC50 was 39.8 µM [rising, single point].
Still for that read-out and setting: the figure for `CCOc1ccc2oc(=O)cc(CN3CCN(c4cc(C)ccc4C)CC3)c2c1` is 20 µM [falling, partial curve]; for `Cc1cccc(N2CCN(C(=O)C3CCN(S(=O)(=O)c4cccc5cccnc45)CC3)CC2C)c1` (stereo unspecified) it is 6.31 µM [falling, partial curve]; for `Cc1c(NC(=O)CSc2nncc3ccccc23)c(=O)n(-c2ccccc2)n1C` it is 20 µM [falling, partial curve].
Turning to `O=C(Nc1ccc(S(=O)(=O)NC2CCCCC2)cc1)c1ccc(Br)o1`, the AC50 under setting [1] is 5.01 µM [falling, partial curve].
Same read-out and setting: the value for `O=C(CSc1nnc(Cn2nnc3ccccc32)o1)N(Cc1ccc(F)cc1)c1ccccc1` was 10 µM [falling, partial curve]; that for `Cc1c2cnn(-c3ccccc3)c(=O)c2c(C)n1CC(=O)NCCc1ccc(Cl)cc1` was 31.6 µM [falling, single point]; that for `COC(=O)C1CCN(C(=O)COC(=O)Cc2c[nH]c3ccccc23)CC1` was 12.6 µM [falling, partial curve].
For `CCOC(=O)c1[nH]c2ccc(F)cc2c1NC(=O)CN1CCc2cc(OC)c(OC)cc2C1`, the AC50 under setting [1] was 10 µM [falling, partial curve].
Regarding `CC(=O)N1CCc2c(sc3c2c(=O)n(-c2ccccc2)c(=O)n3CC(=O)Nc2ccccc2)C1`, the AC50 under setting [1] was 15.8 µM [falling, partial curve].
In the case of `COc1cc(CNC(=O)c2ccc3c(c2)N(C)C(=O)C2CCCCN32)cc(OC)c1OC` (stereo unspecified), the AC50 under setting [1] is 10 µM [falling, partial curve].
The same measure, in the same setting: the figure for `COc1ccccc1-c1nnc(SCC(=O)Nc2ccccc2F)o1` is 0.0501 µM [falling, full curve].
`Cc1nc2sc(C(c3ccco3)N3CCC(Cc4ccccc4)CC3)c(O)n2n1` (stereo unspecified): the AC50 under setting [1] is 2 µM [falling, full curve].
Consider `CCC1CN(C(=O)N2CCC(C(=O)N3CCN(c4cccc(C)c4C)CC3)CC2)c2ccccc2O1` (stereo unspecified), for which, under setting [1], the concentration at half-maximal activity (AC50) is 25.1 µM [falling, partial curve].
On the same count and under the same terms, the value for `Cc1ccc(Cl)cc1NC(=O)CCC(=O)N1CC(C)Sc2ccccc21` (stereo unspecified) was 25.1 µM [falling, single point]; that for `CC(=O)N1c2ccc(S(=O)(=O)NCC3CCC(C(=O)Nc4ccc(C)cc4)CC3)cc2CC1C` (stereo unspecified) was 12.6 µM [falling, partial curve]; that for `COc1cccc2cc3c(=O)n(-c4ccccc4)nc-3oc12` was 0.00794 µM [falling, full curve].
The same measure, in the same setting: the value for `Cc1nc(C)c(C(=O)Nc2nc3c(C)cccc3s2)o1` was 15.8 µM [falling, partial curve]; that for `CCc1ccc(CNC(=O)c2ccc3c(c2)c(C)c(C)n3Cc2ccccc2)cc1` was 0.126 µM [rising, full curve, poor fit]; that for `COc1cccc2c1OC1(C)CC2NC(=O)N1c1cccc(C(=O)Nc2ccc3c(c2)OCCO3)c1` (stereo unspecified) was 2.51 µM [falling, full curve].
